The test system of this test is Salmonella enterica serovar Typhimurium SL1344. Nature of the test: bacterial growth OD600 after 18 h with compound and polymyxin B; higher = more bacterial growth (less inhibition). The following applies: 50 µM, Mueller-Hinton broth.

The other results are listed elsewhere or left out. Values are raw readings; no control value is given beside them.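 First-pass screen: polymyxin B was added at a level that permeabilizes the Salmonella outer membrane while sparing the inner membrane. DMSO wells, with and without polymyxin B, defined maximum growth. Because plates differed from one another, each plate's data were ranked separately and the compounds with the lowest OD600 were carried forward as hits.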

In the case of `C=CCCC(=O)NC1CCCc2c1cnn2-c1cc(C)cc(C)c1` (configuration not stated), the “bacterial growth OD600” value (polymyxin B 1 µg/mL) was 0.541. The same measure, in the same setting: with `Cc1cccn2c(CNC(C)CCCC(C)(C)O)c(C(=O)N3CCCCC3)nc12` (configuration not stated) the figure was 0.878; with `O=C(NCc1c(F)cccc1F)c1ccc(OC2CCN(C(=O)C3CC3)CC2)cc1`, 0.826. For the compound `COc1ccc(CC2(CCC(=O)N(C)Cc3csc(-c4cccs4)n3)CCC(=O)N2)c(F)c1` (configuration not stated), the “bacterial growth OD600” value (polymyxin B 0.75 µg/mL) was determined as 0.609.

On to `O=C(C1=CCCCC1)N1CCCC(CO)(CCCc2ccccc2)C1` (configuration not stated), for which the “bacterial growth OD600” value (polymyxin B 1 µg/mL) amounted to 0.715.

Turning to `Cc1ccc(CNC2CCCc3nc(-c4ccccc4)ncc32)o1` (configuration not stated), the “bacterial growth OD600” value (polymyxin B 0.75 µg/mL) was determined as 0.739.

As for `COc1ccc(CC2(CCC(=O)N3CCN(c4cc(Cl)ccc4C)CC3)CCC(=O)N2)c(F)c1` (configuration not stated), the “bacterial growth OD600” value (polymyxin B 0.75 µg/mL) was found to be 0.004. For `Cc1nc(N2CCCC(NCc3ccccc3F)CC2)nc2ccc(F)cc12` (configuration not stated), the “bacterial growth OD600” value (polymyxin B 0.75 µg/mL) was found to be 0.656. For `O=C(c1ccc2nc(C3CCCCC3)oc2c1)N1CCC(N2CCSCC2)CC1`, the “bacterial growth OD600” value (polymyxin B 1 µg/mL) is 0.817. With `C[C@@H]1CN(C2(C(=O)N[C@H]3CCCCNC3=O)Cc3ccccc3C2)C[C@H](C)O1`, the “bacterial growth OD600” value (polymyxin B 1 µg/mL) was 0.872. Same read-out and setting: under `CCOC(=O)C1(Cc2ccc(F)cc2F)CCCN(C(=O)CNC(C)=O)C1` (configuration not stated) stands 0.937. On the same count and under the same terms, under `C=CCC(=O)NC1CCCc2c1cnn2-c1ccc(C(C)(C)C)cc1` (configuration not stated) stands 0.012. Take `O=C(CCOc1ccccc1)Nc1ccnn1C1CCN(CC2CC2)CC1`: the “bacterial growth OD600” value (polymyxin B 1 µg/mL) worked out at 1.2. Regarding `CCN1CCN(C2(C(=O)N3CCCC(COC)C3)Cc3ccccc3C2)CC1` (configuration not stated), the “bacterial growth OD600” value (polymyxin B 0.75 µg/mL) is 0.818. The same measure, in the same setting: with `CC(CCCC(C)(C)O)Nc1nncc(-c2ccc(C(F)(F)F)cc2)n1` (configuration not stated) the figure was 0.285.

For the compound `COc1ccc(Cl)cc1NC(=O)CCC1CCCN(C(=O)CN2CCCCC2=O)C1` (configuration not stated), the “bacterial growth OD600” value (polymyxin B 1 µg/mL) worked out at 0.943.

In the case of `O=C(Nc1cnn(-c2ccc(C(=O)N3CCC(Oc4cccnc4)CC3)cc2)c1)c1ccoc1`, under “polymyxin B 0.75 µg/mL”, the “bacterial growth OD600” value was found to be 0.919. As to `O=C(c1cccc2nccnc12)N1CCCC(Nc2ccc(F)c(F)c2)C1` (configuration not stated), the “bacterial growth OD600” value (polymyxin B 1 µg/mL) is 0.827.

With `O=C(NC1CCCC1)c1cc(COc2ccc3c(c2)OCO3)[nH]n1`, for the setting “polymyxin B 1 µg/mL”, the “bacterial growth OD600” value came to 1.17. Regarding `CN(C)c1ncc(CN2CCCC(CNS(=O)(=O)Cc3ccccc3)C2)s1` (configuration not stated), the “bacterial growth OD600” value (polymyxin B 0.75 µg/mL) is 0.865. `Cc1ccc(Oc2ncccc2CNCc2c(F)cccc2Cl)cn1`: the “bacterial growth OD600” value (polymyxin B 1 µg/mL) turned out to be 0.871. On the same count and under the same terms, under `O=C(CCC1CCCN(Cc2c[nH]cn2)C1)N1CCN(Cc2ccccc2)CC1` (configuration not stated) stands 0.566; under `C1CCC(Nc2nc3nonc3nc2NCCCN2CCOCC2)C1`, 0.84; under `CC(Cn1cncn1)NC(=O)c1csc2nc(-c3ccccc3Cl)cn12` (configuration not stated), 0.808. With `COc1ccccc1C(C)N(C)C(=O)c1cc(COc2ccccc2F)[nH]n1` (configuration not stated), where the note is “polymyxin B 0.75 µg/mL”, the “bacterial growth OD600” value amounted to 0.534. Regarding `COc1ccc(CCN(C)C(=O)CN2Cc3ccccc3OC(c3ccccc3OC)C2)cc1OC` (configuration not stated), where the note is “polymyxin B 0.75 µg/mL”, the “bacterial growth OD600” value was 0.632. With `CCOC(=O)C1(Cc2ccc(F)cc2F)CCCN(C(=O)c2cc(C)nn2CC)C1` (configuration not stated), the “bacterial growth OD600” value (polymyxin B 1 µg/mL) was found to be 1.33. `COc1cc(CC2(CCC(=O)N(Cc3c(C)nn(C)c3C)C3CC3)CCC(=O)N2)ccc1F` (configuration not stated): the “bacterial growth OD600” value (polymyxin B 0.75 µg/mL) amounted to 0.821.

In the case of `CCOC(=O)C1(Cc2ccccc2F)CCCN(C(=O)CCC(=O)OC)C1` (configuration not stated), for the setting “polymyxin B 1 µg/mL”, the “bacterial growth OD600” value was 0.908. For `COc1cccc(C(=O)NCC2CCCN(C(=O)c3cnsn3)C2)c1OC` (configuration not stated), the “bacterial growth OD600” value (polymyxin B 1 µg/mL) came out at 0.919. Regarding `C#CCN(CC=C)C(=O)c1ccccc1OC1CCN(C(=O)c2cccnc2)CC1`, the “bacterial growth OD600” value (polymyxin B 1 µg/mL) amounted to 0.525. `CC(C)CCC(=O)N1CCC(C(=O)Nc2ccc(-c3nc4ccccc4o3)cc2)CC1`: the “bacterial growth OD600” value (polymyxin B 0.75 µg/mL) was determined as 0.866.
